Article PMC12905343
Results are given in words; binding and its absence hold for the method and conditions named. In cells and extracts the contact can be indirect. Some results given as binding are weak or reduced against the parent protein; the word gives no strength. Sequences can lack the tags named with a protein.

How the values were obtained:
HA-INSIG1(H150R) (human) = molecular target: T1, HA-INSIG1(H150R) (human) (UniProt O15503); assay: co-IP; HepG2 cells co-transfected with HA-INSIG1 (WT or H150R) and Flag-SCAP; lysate incubated with HA antibody on Protein A/G magnetic beads, 4 °C, 2 h; washed with PBST pH 7.4; eluted with 0.15 M glycine pH 2.8; western blot with anti-HA and anti-FLAG
T1 sequence: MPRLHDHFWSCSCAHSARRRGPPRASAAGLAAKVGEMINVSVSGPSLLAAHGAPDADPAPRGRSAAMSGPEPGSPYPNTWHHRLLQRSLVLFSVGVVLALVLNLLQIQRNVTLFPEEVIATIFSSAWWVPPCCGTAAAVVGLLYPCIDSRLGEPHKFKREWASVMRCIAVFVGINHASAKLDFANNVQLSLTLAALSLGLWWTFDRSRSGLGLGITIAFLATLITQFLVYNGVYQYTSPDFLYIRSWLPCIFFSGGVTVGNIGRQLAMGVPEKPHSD

HA-INSIG1(WT) (human) = molecular target: T2, HA-INSIG1(WT) (human) (UniProt O15503); assay: as above
T2 sequence: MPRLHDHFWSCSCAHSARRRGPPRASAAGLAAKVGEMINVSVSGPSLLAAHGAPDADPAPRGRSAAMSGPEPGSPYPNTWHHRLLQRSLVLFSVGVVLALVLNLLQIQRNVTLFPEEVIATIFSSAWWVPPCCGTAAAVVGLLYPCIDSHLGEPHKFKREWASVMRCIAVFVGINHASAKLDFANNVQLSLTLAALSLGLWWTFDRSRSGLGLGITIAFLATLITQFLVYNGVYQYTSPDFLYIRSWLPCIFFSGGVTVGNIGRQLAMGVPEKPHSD

B1: FLAG-SCAP (protein, UniProt Q12770-1 1-1279)
chain: MTLTERLREKISRAFYNHGLLCASYPIPIILFTGFCILACCYPLLKLPLPGTGPVEFTTPVKDYSPPPVDSDRKQGEPTEQPEWYVGAPVAYVQQIFVKSSVFPWHKNLLAVDVFRSPLSRAFQLVEEIRNHVLRDSSGIRSLEELCLQVTDLLPGLRKLRNLLPEHGCLLLSPGNFWQNDWERFHADPDIIGTIHQHEPKTLQTSATLKDLLFGVPGKYSGVSLYTRKRMVSYTITLVFQHYHAKFLGSLRARLMLLHPSPNCSLRAESLVHVHFKEEIGVAELIPLVTTYIILFAYIYFSTRKIDMVKSKWGLALAAVVTVLSSLLMSVGLCTLFGLTPTLNGGEIFPYLVVVIGLENVLVLTKSVVSTPVDLEVKLRIAQGLSSESWSIMKNMATELGIILIGYFTLVPAIQEFCLFAVVGLVSDFFLQMLFFTTVLSIDIRRMELADLNKRLPPEACLPSAKPVGQPTRYERQLAVRPSTPHTITLQPSSFRNLRLPKRLRVVYFLARTRLAQRLIMAGTVVWIGILVYTDPAGLRNYLAAQVTEQSPLGEGALAPMPVPSGMLPPSHPDPAFSIFPPDAPKLPENQTSPGESPERGGPAEVVHDSPVPEVTWGPEDEELWRKLSFRHWPTLFSYYNITLAKRYISLLPVIPVTLRLNPREALEGRHPQDGRSAWPPPGPIPAGHWEAGPKGPGGVQAHGDVTLYKVAALGLATGIVLVLLLLCLYRVLCPRNYGQLGGGPGRRRRGELPCDDYGYAPPETEIVPLVLRGHLMDIECLASDGMLLVSCCLAGHVCVWDAQTGDCLTRIPRPGRQRRDSGVGSGLEAQESWERLSDGGKAGPEEPGDSPPLRHRPRGPPPPSLFGDQPDLTCLIDTNFSAQPRSSQPTQPEPRHRAVCGRSRDSPGYDFSCLVQRVYQEEGLAAVCTPALRPPSPGPVLSQAPEDEGGSPEKGSPSLAWAPSAEGSIWSLELQGNLIVVGRSSGRLEVWDAIEGVLCCSSEEVSSGITALVFLDKRIVAARLNGSLDFFSLETHTALSPLQFRGTPGRGSSPASPVYSSSDTVACHLTHTVPCAHQKPITALKAAAGRLVTGSQDHTLRVFRLEDSCCLFTLQGHSGAITTVYIDQTMVLASGGQDGAICLWDVLTGSRVSHVFAHRGDVTSLTCTTSCVISSGLDDLISIWDRSTGIKFYSIQQDLGCGASLGVISDNLLVTGGQGCVSFWDLNYGDLLQTVYLGKNSEAQPARQILVLDNAAIVCNFGSELSLVYVPSVLEKLD
binding (HA-INSIG1(H150R) (human)): no binding | binding (HA-INSIG1(WT) (human)): binds
